Measurements: the supplement of paper PMC10727501
Where a name gives a salt, the structure may show the parent alone. The list shows a part of the results. Repeats in this data set agree poorly, so a single value says little.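 Free-swimming zebrafish larvae were scored for O-bend response probability to dark flashes (naive: first five; training: remaining flashes of four 60-flash blocks; test: later 60-flash block) and for turning toward alternating leftward/rightward LED motion (OMR). Six treated larvae were compared with sixty 0.1% DMSO controls; |SSMD|≥2 defined a hit.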

tested on: Danio rerio larvae (5 dpf, TLF); assay: OMR-Perf (SSMD vs DMSO vehicle); higher = higher than vehicle (e.g. higher dark-flash O-bend response probability, or better optomotor performance); settings: 10 µM; pre-incubation: 30-90 min

SMILES	OMR-Perf
CCCNCC(O)COc1ccccc1C(=O)CCc1ccccc1 (centres undefined) [Propafenone HCl]	-0.217
CN1CCC(=C2c3ccccc3CCc3cccnc32)CC1.O=C(O)C=CC(=O)O.O=C(O)C=CC(=O)O [Azatadine dimaleate]	-0.626
C[C@@H]1[C@H](NC(=O)/C(=N\OC(C)(C)C(=O)O)c2csc(N)n2)C(=O)N1S(=O)(=O)O [Aztreonam]	0.155
NC[C@H]1O[C@H](O[C@H]2[C@H](O)[C@@H](O[C@H]3O[C@H](CO)[C@@H](O)[C@H](N)[C@H]3O)[C@H](N)C[C@@H]2N)[C@H](N)[C@@H](O)[C@@H]1O [Bekanamycin]	0.167
Cc1cc(C(=O)NOCCO)c(Nc2ccc(I)cc2F)n(C)c1=O	-0.482
CC[C@H](Nc1ncnc2[nH]cnc12)c1nc2cccc(F)c2c(=O)n1-c1ccccc1 [CAL-101 (Idelalisib, GS-1101)]	0.416
c1ccc2[nH]c(-c3cscn3)nc2c1 [Thiabendazole]	-0.465
Cl.Clc1ccc2nsnc2c1NC1=NCCN1 [Tizanidine HCl]	-0.299
COC(=O)Nc1nc2ccc(S(=O)c3ccccc3)cc2[nH]1 (centres undefined) [Oxfendazole]	-0.609
CN1c2ccccc2C(=O)N2CCc3c([nH]c4ccccc34)C21 (centres undefined) [Evodiamine]	-0.864
CCCS(=O)c1ccc2nc(NC(=O)OC)[nH]c2c1 (centres undefined) [Albendazole Oxide]	-0.271
C=C(c1ccc(C(=O)O)cc1)c1cc2c(cc1C)C(C)(C)CCC2(C)C [Bexarotene]	-1.07
O=C1CCC[C@@H]2[C@@H]3CCC[N+]4([O-])CCC[C@H](CN12)[C@@H]34 (some centres undefined) [Oxymatrine]	-0.0735
Cc1[nH]c(=O)c(C#N)cc1-c1ccncc1 [Milrinone]	-0.453
CC(C)C[C@H](NC(=O)CNC(=O)c1cc(Cl)ccc1Cl)B1OC(=O)CC(CC(=O)O)(C(=O)O)O1 (some centres undefined)	0.187
Nc1nc(=O)c2c([nH]1)NC[C@H](CNc1ccc(C(=O)N[C@@H](CCC(=O)[O-])C(=O)[O-])cc1)N2C=O.[Ca+2] [Calcium levofolinate (Calcium Folinate)]	-0.177
COc1c(C)cnc(Cn2cnc3c(Cl)nc(N)nc32)c1C	-0.237
C[C@@H]1CC(=O)NN=C1c1ccc(NN=C(C#N)C#N)cc1 [Levosimendan]	-0.526
CCCS(=O)(=O)Nc1ccc(F)c(C(=O)c2c[nH]c3ncc(Cl)cc23)c1F	0.213
CS(=O)(=O)CCNCc1ccc(-c2ccc3ncnc(Nc4ccc(OCc5cccc(F)c5)c(Cl)c4)c3c2)o1.Cc1ccc(S(=O)(=O)O)cc1.Cc1ccc(S(=O)(=O)O)cc1	-0.724
C[C@H](O)[C@@H]1C(=O)N2C(C(=O)O)=C(S[C@@H]3CN[C@H](CNS(N)(=O)=O)C3)[C@@H](C)[C@@H]12.O [Doripenem Hydrate]	-0.382
NS(=O)(=O)Cc1noc2ccccc12 [Zonisamide]	-0.0493
CNC(=O)[C@H](Cc1c[nH]c2ccccc12)NC(=O)[C@@H](CC(=O)NO)CC(C)C [Ilomastat (GM6001, Galardin)]	0.199
C[C@@H]1CN(c2c(F)c(F)c3c(=O)c(C(=O)O)cn(C4CC4)c3c2F)C[C@@H](C)N1 [Orbifloxacin]	-0.251
CC(=O)N[C@@H](CS)C(=O)O [Acetylcysteine]	-0.248
CC(N)C12CC3CC(CC(C3)C1)C2 (centres undefined) [Rimantadine]	-0.331
C[C@@H]1O[C@H](O[C@H]2[C@H](O)[C@@H](O)[C@@H](O[C@H]3[C@H](O)[C@@H](O)[C@H](O)O[C@H]3CO)O[C@H]2CO)[C@H](O)[C@@H](O)[C@@H]1N[C@H]1C=C(CO)[C@@H](O)[C@H](O)[C@@H]1O [Acarbose]	0.171
C[C@H](NC(=O)[C@@H](O)c1cc(F)cc(F)c1)C(=O)N[C@@H]1C(=O)N(C)c2ccccc2-c2ccccc21	0.123
O=C(COc1ccc(C(=O)c2ccccc2)cc1)NC1CCN(Cc2ccccc2)CC1 [AdipoRon]	-0.473

Another view of part of the listing above.

| SMILES | OMR-Perf |
| --- | --- |
| Cc1cc(C(=O)NOCCO)c(Nc2ccc(I)cc2F)n(C)c1=O | -0.482 |
| CC[C@H](Nc1ncnc2[nH]cnc12)c1nc2cccc(F)c2c(=O)n1-c1ccccc1 [CAL-101 (Idelalisib, GS-1101)] | 0.416 |
| c1ccc2[nH]c(-c3cscn3)nc2c1 [Thiabendazole] | -0.465 |
| Cl.Clc1ccc2nsnc2c1NC1=NCCN1 [Tizanidine HCl] | -0.299 |
| COC(=O)Nc1nc2ccc(S(=O)c3ccccc3)cc2[nH]1 (centres undefined) [Oxfendazole] | -0.609 |
| CN1c2ccccc2C(=O)N2CCc3c([nH]c4ccccc34)C21 (centres undefined) [Evodiamine] | -0.864 |
| CCCS(=O)c1ccc2nc(NC(=O)OC)[nH]c2c1 (centres undefined) [Albendazole Oxide] | -0.271 |
| C=C(c1ccc(C(=O)O)cc1)c1cc2c(cc1C)C(C)(C)CCC2(C)C [Bexarotene] | -1.07 |
| O=C1CCC[C@@H]2[C@@H]3CCC[N+]4([O-])CCC[C@H](CN12)[C@@H]34 (some centres undefined) [Oxymatrine] | -0.0735 |
| Cc1[nH]c(=O)c(C#N)cc1-c1ccncc1 [Milrinone] | -0.453 |
| CC(C)C[C@H](NC(=O)CNC(=O)c1cc(Cl)ccc1Cl)B1OC(=O)CC(CC(=O)O)(C(=O)O)O1 (some centres undefined) | 0.187 |
| Nc1nc(=O)c2c([nH]1)NC[C@H](CNc1ccc(C(=O)N[C@@H](CCC(=O)[O-])C(=O)[O-])cc1)N2C=O.[Ca+2] [Calcium levofolinate (Calcium Folinate)] | -0.177 |
| COc1c(C)cnc(Cn2cnc3c(Cl)nc(N)nc32)c1C | -0.237 |
| C[C@@H]1CC(=O)NN=C1c1ccc(NN=C(C#N)C#N)cc1 [Levosimendan] | -0.526 |

tested on: Danio rerio larvae (5 dpf, TLF); assay: Prob-Test (SSMD vs DMSO vehicle); higher = higher than vehicle (e.g. higher dark-flash O-bend response probability, or better optomotor performance); settings: 10 µM; pre-incubation: 30-90 min

SMILES	Prob-Test
CC(C)c1nc(CN(C)C(=O)N[C@H](C(=O)N[C@@H](Cc2ccccc2)C[C@H](O)[C@H](Cc2ccccc2)NC(=O)OCc2cncs2)C(C)C)cs1 [Ritonavir]	0.366
CC(=O)OCC(=O)[C@]1(O)CC[C@H]2[C@@H]3CCC4=CC(=O)C=C[C@]4(C)[C@@H]3[C@H](O)C[C@@]21C [Prednisolone acetate (Omnipred)]	0.373
OCC(CO)N[C@H]1C[C@@](O)(CO)[C@@H](O)[C@H](O)[C@H]1O [Voglibose]	0.127
CC(=O)O.N=C(N)N/N=C/c1c(Cl)cccc1Cl [Guanabenz Acetate]	-1.56
CC(C)(C)NCC(O)c1ccc(O)c(CO)c1.O=S(=O)(O)O (centres undefined) [Salbutamol sulfate (Albuterol)]	0.281
CN(C)C(=O)c1cc2cnc(Nc3ccc(N4CCNCC4)cn3)nc2n1C1CCCC1	-0.196
C=CC(=O)Nc1cccc(Oc2nc(Nc3ccc(N4CCN(C)CC4)cc3)ncc2Cl)c1	-0.0437
CN(c1nccc(=O)[nH]1)C1CCN(c2nc3ccccc3n2Cc2ccc(F)cc2)CC1 [Mizolastine (Mizollen)]	0.124
CCn1c2ccccc2c2cc(Nc3ccnc(NCCCN4CCOCC4)n3)ccc21	-0.898
O=c1cc(-c2ccc(O)cc2)oc2cc(O)cc(O)c12 [Apigenin]	-0.258
CC(=O)OCC(=O)NCCCOc1cccc(CN2CCCCC2)c1.Cl [Roxatidine Acetate HCl]	0.228
CCCNCC(O)COc1ccccc1C(=O)CCc1ccccc1 (centres undefined) [Propafenone HCl]	1.16
CN1CCC(=C2c3ccccc3CCc3cccnc32)CC1.O=C(O)C=CC(=O)O.O=C(O)C=CC(=O)O [Azatadine dimaleate]	0.04
C[C@@H]1[C@H](NC(=O)/C(=N\OC(C)(C)C(=O)O)c2csc(N)n2)C(=O)N1S(=O)(=O)O [Aztreonam]	0.412
NC[C@H]1O[C@H](O[C@H]2[C@H](O)[C@@H](O[C@H]3O[C@H](CO)[C@@H](O)[C@H](N)[C@H]3O)[C@H](N)C[C@@H]2N)[C@H](N)[C@@H](O)[C@@H]1O [Bekanamycin]	0.161
Cc1cc(C(=O)NOCCO)c(Nc2ccc(I)cc2F)n(C)c1=O	-1.56
CC[C@H](Nc1ncnc2[nH]cnc12)c1nc2cccc(F)c2c(=O)n1-c1ccccc1 [CAL-101 (Idelalisib, GS-1101)]	-0.204
c1ccc2[nH]c(-c3cscn3)nc2c1 [Thiabendazole]	-1.21

SMILES	Prob-Test
Cl.Clc1ccc2nsnc2c1NC1=NCCN1 [Tizanidine HCl]	-0.998
COC(=O)Nc1nc2ccc(S(=O)c3ccccc3)cc2[nH]1 (centres undefined) [Oxfendazole]	-0.676
CN1c2ccccc2C(=O)N2CCc3c([nH]c4ccccc34)C21 (centres undefined) [Evodiamine]	-1.38
CCCS(=O)c1ccc2nc(NC(=O)OC)[nH]c2c1 (centres undefined) [Albendazole Oxide]	0.966
C=C(c1ccc(C(=O)O)cc1)c1cc2c(cc1C)C(C)(C)CCC2(C)C [Bexarotene]	-1.63
O=C1CCC[C@@H]2[C@@H]3CCC[N+]4([O-])CCC[C@H](CN12)[C@@H]34 (some centres undefined) [Oxymatrine]	-0.302
Cc1[nH]c(=O)c(C#N)cc1-c1ccncc1 [Milrinone]	-0.000449
CC(C)C[C@H](NC(=O)CNC(=O)c1cc(Cl)ccc1Cl)B1OC(=O)CC(CC(=O)O)(C(=O)O)O1 (some centres undefined)	0.762
Nc1nc(=O)c2c([nH]1)NC[C@H](CNc1ccc(C(=O)N[C@@H](CCC(=O)[O-])C(=O)[O-])cc1)N2C=O.[Ca+2] [Calcium levofolinate (Calcium Folinate)]	-0.288
COc1c(C)cnc(Cn2cnc3c(Cl)nc(N)nc32)c1C	-0.809
C[C@@H]1CC(=O)NN=C1c1ccc(NN=C(C#N)C#N)cc1 [Levosimendan]	0.0478
CCCS(=O)(=O)Nc1ccc(F)c(C(=O)c2c[nH]c3ncc(Cl)cc23)c1F	-0.283
CS(=O)(=O)CCNCc1ccc(-c2ccc3ncnc(Nc4ccc(OCc5cccc(F)c5)c(Cl)c4)c3c2)o1.Cc1ccc(S(=O)(=O)O)cc1.Cc1ccc(S(=O)(=O)O)cc1	-0.748
C[C@H](O)[C@@H]1C(=O)N2C(C(=O)O)=C(S[C@@H]3CN[C@H](CNS(N)(=O)=O)C3)[C@@H](C)[C@@H]12.O [Doripenem Hydrate]	-0.0444
NS(=O)(=O)Cc1noc2ccccc12 [Zonisamide]	0.196
CNC(=O)[C@H](Cc1c[nH]c2ccccc12)NC(=O)[C@@H](CC(=O)NO)CC(C)C [Ilomastat (GM6001, Galardin)]	0.0353
C[C@@H]1CN(c2c(F)c(F)c3c(=O)c(C(=O)O)cn(C4CC4)c3c2F)C[C@@H](C)N1 [Orbifloxacin]	0.0651

Reformatted with bars between the fields: part of the list above
SMILES | Prob-Test
CNC(=O)[C@H](Cc1c[nH]c2ccccc12)NC(=O)[C@@H](CC(=O)NO)CC(C)C [Ilomastat (GM6001, Galardin)] | 0.0353
C[C@@H]1CN(c2c(F)c(F)c3c(=O)c(C(=O)O)cn(C4CC4)c3c2F)C[C@@H](C)N1 [Orbifloxacin] | 0.0651
